Experiment [1] concerns the target GST-nesprin-2 SR11-12 (human). In words: pull-down.
Experiment [2] has as its target GST-nesprin-2 SR11-13 (human). In words: pull-down.

Results are given in words; binding and its absence hold for the method and conditions named. In cells and extracts the contact can be indirect. Binding calls can cover weak binding; strength is not graded here. Sequences can lack the tags named with a protein.

B1: FLAG-tagged FHOD1 (protein, UniProt Q9Y613 1-1164)
chain: MAGGEDRGDGEPVSVVTVRVQYLEDTDPFACANFPEPRRAPTCSLDGALPLGAQIPAVHRLLGAPLKLEDCALQVSPSGYYLDTELSLEEQREMLEGFYEEISKGRKPTLILRTQLSVRVNAILEKLYSSSGPELRRSLFSLKQIFQEDKDLVPEFVHSEGLSCLIRVGAAADHNYQSYILRALGQLMLFVDGMLGVVAHSDTIQWLYTLCASLSRLVVKTALKLLLVFVEYSENNAPLFIRAVNSVASTTGAPPWANLVSILEEKNGADPELLVYTVTLINKTLAALPDQDSFYDVTDALEQQGMEALVQRHLGTAGTDVDLRTQLVLYENALKLEDGDIEEAPGAGGRRERRKPSSEEGKRSRRSLEGGGCPARAPEPGPTGPASPVGPTSSTGPALLTGPASSPVGPPSGLQASVNLFPTISVAPSADTSSERSIYKARFLENVAAAETEKQVALAQGRAETLAGAMPNEAGGHPDARQLWDSPETAPAARTPQSPAPCVLLRAQRSLAPEPKEPLIPASPKAEPIWELPTRAPRLSIGDLDFSDLGEDEDQDMLNVESVEAGKDIPAPSPPLPLLSGVPPPPPLPPPPPIKGPFPPPPPLPLAAPLPHSVPDSSALPTKRKTVKLFWRELKLAGGHGVSASRFGPCATLWASLDPVSVDTARLEHLFESRAKEVLPSKKAGEGRRTMTTVLDPKRSNAINIGLTTLPPVHVIKAALLNFDEFAVSKDGIEKLLTMMPTEEERQKIEEAQLANPDIPLGPAENFLMTLASIGGLAARLQLWAFKLDYDSMEREIAEPLFDLKVGMEQLVQNATFRCILATLLAVGNFLNGSQSSGFELSYLEKVSEVKDTVRRQSLLHHLCSLVLQTRPESSDLYSEIPALTRCAKVDFEQLTENLGQLERRSRAAEESLRSLAKHELAPALRARLTHFLDQCARRVAMLRIVHRRVCNRFHAFLLYLGYTPQAAREVRIMQFCHTLREFALEYRTCRERVLQQQQKQATYRERNKTRGRMITETEKFSGVAGEAPSNPSVPVAVSSGPGRGDADSHASMKSLLTSRPEDTTHNRRSRGMVQSSSPIMPTVGPSTASPEEPPGSSLPSDTSDEIMDLLVQSVTKSSPRALAARERKRSRGNRKSLRRTLKSGLGDDLVQALGLSKGPGLEV
For the molecule B1, the binding entry in experiment [1] and in experiment [2] was “binds” throughout.
